Test results from the supplement of paper PMC10849652.
Some of the results follow.

Amino acid sequences for entries named in this document (tags omitted). A change or cut given only in a name is not applied to a line headed by its entry.
UniProt Q3SXY8: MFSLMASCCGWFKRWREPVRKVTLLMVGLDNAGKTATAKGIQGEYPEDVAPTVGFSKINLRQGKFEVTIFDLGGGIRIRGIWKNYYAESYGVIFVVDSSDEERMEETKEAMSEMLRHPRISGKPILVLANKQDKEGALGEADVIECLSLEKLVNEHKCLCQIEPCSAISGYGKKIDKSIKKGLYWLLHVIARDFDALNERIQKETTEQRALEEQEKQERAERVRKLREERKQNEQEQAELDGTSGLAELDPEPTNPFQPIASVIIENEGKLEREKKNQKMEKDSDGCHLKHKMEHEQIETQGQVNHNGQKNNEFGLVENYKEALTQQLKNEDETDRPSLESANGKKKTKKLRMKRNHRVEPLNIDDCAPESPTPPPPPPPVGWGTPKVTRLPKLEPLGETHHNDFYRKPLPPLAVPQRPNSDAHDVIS
UniProt Q99767, whole entry, looked up: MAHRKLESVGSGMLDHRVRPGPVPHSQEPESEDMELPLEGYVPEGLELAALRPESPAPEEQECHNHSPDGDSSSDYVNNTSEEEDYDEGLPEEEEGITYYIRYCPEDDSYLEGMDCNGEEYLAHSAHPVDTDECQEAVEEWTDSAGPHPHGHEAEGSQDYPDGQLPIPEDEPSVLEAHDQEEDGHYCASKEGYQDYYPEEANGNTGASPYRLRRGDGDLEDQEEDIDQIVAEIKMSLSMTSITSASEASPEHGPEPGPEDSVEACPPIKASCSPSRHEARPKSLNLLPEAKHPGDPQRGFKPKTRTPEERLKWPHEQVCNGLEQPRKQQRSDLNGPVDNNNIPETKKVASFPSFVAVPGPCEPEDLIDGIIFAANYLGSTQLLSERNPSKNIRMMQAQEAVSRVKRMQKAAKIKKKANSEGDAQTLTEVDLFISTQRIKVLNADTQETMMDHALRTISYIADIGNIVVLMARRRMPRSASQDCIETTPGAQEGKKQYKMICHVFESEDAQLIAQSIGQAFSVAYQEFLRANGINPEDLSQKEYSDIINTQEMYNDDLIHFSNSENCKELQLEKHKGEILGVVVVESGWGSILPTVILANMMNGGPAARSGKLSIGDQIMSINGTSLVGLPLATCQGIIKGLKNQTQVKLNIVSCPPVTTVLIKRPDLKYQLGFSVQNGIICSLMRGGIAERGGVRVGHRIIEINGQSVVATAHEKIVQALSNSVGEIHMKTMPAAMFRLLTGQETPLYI
UniProt P29374: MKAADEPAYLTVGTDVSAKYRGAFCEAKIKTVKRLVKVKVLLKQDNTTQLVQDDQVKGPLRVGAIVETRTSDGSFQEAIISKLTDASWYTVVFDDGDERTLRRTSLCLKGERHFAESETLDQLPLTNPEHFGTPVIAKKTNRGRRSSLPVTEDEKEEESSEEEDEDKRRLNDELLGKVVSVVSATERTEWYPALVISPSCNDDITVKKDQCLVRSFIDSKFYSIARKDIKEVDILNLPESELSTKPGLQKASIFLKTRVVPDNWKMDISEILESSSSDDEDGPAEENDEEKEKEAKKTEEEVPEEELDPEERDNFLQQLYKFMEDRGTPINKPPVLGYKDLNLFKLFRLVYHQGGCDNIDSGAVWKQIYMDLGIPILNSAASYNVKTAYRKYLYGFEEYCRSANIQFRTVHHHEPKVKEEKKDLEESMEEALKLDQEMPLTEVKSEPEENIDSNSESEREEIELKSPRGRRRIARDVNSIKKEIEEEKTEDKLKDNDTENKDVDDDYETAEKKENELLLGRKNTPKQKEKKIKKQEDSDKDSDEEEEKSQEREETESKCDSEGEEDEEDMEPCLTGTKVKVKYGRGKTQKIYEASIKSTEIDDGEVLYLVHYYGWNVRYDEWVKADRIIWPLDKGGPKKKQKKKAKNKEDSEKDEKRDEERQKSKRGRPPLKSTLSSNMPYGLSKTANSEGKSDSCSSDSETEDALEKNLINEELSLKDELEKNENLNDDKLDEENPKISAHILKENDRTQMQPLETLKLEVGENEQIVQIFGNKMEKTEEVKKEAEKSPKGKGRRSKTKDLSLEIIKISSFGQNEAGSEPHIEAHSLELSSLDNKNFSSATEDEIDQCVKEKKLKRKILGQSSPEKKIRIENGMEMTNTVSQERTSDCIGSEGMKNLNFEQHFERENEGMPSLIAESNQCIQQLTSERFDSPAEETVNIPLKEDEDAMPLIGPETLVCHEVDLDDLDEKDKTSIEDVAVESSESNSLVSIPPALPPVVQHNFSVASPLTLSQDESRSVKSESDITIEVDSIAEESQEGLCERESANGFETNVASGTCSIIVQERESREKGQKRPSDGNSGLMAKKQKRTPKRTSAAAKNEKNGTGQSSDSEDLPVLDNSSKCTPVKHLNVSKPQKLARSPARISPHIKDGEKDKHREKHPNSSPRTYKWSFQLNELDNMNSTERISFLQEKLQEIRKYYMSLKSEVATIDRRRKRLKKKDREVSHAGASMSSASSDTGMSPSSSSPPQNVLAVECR
UniProt Q06481, whole entry, looked up: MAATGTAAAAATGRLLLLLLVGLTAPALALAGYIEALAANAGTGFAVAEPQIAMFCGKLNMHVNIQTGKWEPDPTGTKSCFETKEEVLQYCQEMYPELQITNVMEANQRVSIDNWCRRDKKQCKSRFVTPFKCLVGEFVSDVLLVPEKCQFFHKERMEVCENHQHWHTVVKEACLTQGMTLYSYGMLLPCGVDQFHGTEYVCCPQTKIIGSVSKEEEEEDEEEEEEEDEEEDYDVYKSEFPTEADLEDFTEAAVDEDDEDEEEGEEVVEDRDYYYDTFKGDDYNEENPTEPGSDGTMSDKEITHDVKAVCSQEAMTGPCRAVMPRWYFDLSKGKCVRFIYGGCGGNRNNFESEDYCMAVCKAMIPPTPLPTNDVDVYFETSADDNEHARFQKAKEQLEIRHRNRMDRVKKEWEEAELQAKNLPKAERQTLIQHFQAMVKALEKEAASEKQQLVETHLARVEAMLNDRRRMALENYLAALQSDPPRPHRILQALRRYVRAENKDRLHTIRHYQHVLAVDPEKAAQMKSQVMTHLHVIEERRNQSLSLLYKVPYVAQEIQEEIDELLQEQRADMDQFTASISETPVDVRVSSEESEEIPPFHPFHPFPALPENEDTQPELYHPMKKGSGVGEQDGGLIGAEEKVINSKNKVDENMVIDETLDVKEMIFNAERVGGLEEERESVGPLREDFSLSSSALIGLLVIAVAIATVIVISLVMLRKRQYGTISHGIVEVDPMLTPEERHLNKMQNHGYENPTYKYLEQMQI
UniProt P25054, whole entry, looked up: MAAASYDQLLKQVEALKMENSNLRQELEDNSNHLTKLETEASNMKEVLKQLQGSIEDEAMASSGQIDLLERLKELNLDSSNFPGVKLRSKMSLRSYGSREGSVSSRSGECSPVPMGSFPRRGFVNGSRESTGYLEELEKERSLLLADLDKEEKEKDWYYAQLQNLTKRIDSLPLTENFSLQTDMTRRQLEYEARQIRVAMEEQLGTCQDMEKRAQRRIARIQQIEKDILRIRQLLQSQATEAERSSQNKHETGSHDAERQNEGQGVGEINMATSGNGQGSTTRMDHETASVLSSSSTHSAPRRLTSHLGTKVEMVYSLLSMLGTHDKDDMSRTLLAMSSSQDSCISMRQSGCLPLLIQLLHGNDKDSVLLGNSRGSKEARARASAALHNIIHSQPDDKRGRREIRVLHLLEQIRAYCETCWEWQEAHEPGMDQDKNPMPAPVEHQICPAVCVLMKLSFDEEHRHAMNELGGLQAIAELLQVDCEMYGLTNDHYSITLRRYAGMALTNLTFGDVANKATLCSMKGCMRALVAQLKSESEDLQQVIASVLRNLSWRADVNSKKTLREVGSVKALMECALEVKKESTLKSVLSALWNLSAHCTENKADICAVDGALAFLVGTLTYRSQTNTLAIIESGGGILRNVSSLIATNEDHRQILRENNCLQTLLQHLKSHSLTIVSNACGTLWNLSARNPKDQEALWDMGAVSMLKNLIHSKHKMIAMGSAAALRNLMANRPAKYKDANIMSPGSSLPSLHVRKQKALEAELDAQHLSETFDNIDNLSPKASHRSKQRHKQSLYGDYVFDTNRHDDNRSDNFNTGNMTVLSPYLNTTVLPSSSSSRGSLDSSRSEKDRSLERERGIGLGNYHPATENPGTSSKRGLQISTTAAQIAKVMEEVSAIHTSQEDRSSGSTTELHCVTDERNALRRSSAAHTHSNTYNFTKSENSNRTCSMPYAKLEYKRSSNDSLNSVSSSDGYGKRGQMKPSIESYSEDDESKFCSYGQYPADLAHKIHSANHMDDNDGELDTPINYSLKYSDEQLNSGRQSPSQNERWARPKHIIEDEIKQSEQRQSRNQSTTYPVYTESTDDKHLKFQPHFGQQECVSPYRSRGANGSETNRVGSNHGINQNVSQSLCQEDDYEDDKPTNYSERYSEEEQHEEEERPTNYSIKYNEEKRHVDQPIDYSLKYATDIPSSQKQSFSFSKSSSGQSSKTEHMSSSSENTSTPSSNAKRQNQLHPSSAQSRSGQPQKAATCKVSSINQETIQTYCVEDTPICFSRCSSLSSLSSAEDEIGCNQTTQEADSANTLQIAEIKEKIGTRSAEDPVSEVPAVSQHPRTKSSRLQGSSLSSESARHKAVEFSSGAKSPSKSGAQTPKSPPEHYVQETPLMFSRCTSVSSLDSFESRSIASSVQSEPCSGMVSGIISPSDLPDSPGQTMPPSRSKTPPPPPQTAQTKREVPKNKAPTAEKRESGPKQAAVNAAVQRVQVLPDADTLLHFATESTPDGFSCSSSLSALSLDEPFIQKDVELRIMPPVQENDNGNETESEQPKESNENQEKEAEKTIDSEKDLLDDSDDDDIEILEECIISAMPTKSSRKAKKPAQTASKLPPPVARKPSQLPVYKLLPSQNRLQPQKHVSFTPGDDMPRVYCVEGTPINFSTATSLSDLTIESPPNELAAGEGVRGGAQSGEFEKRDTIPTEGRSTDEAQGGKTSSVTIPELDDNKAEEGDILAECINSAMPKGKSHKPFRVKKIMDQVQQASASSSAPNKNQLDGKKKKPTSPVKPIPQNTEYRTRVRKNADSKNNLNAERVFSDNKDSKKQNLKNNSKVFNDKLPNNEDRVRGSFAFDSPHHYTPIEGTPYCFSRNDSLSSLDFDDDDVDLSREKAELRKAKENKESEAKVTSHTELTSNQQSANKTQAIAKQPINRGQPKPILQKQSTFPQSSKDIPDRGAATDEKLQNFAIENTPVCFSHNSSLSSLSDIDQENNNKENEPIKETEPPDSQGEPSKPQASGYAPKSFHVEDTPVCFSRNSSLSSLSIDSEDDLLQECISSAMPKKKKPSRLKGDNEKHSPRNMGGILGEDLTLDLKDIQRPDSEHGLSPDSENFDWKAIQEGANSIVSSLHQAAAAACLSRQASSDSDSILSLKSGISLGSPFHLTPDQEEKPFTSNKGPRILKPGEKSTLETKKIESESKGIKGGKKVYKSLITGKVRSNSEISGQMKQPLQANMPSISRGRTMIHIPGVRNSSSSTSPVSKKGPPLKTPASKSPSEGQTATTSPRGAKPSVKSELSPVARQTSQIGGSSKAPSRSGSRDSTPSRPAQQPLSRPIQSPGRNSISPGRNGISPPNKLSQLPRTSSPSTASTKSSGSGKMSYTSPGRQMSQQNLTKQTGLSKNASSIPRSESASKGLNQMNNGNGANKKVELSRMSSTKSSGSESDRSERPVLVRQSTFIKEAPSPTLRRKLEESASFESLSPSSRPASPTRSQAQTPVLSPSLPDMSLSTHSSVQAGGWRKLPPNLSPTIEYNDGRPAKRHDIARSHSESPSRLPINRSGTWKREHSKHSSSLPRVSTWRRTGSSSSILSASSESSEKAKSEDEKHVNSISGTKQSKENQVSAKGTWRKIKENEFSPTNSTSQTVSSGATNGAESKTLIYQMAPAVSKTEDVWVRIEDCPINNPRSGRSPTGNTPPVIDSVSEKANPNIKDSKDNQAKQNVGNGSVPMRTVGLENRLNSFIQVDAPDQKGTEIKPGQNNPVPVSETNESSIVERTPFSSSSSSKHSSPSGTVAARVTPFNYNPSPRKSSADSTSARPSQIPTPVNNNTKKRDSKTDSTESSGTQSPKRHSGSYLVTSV
UniProt P49407: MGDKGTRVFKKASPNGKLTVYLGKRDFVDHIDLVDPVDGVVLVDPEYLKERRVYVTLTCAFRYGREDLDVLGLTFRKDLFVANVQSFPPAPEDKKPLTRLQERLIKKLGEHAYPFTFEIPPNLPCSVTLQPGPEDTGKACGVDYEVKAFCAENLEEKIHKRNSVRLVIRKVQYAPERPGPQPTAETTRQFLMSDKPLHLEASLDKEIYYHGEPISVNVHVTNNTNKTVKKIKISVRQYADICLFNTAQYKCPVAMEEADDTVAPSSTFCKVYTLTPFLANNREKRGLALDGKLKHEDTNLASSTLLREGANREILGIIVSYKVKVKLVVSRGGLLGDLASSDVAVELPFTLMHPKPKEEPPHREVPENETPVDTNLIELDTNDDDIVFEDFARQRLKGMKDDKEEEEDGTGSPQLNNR

What was measured:
Test in all cases: log2 fold change, soluble protein after heating vs DMSO (PISA); higher = thermal stabilisation; K562 lysate, 10 uM; active = over 0.2 and 3.5 SD of the protein, either way, in both replicates (recomputed)
erlotinib = compound: C#Cc1cccc(Nc2ncnc3cc(OCCOC)c(OCCOC)cc23)c1 [erlotinib]
Method in brief: (§1)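 A 30 min treatment with 10 μM compound was applied to crude K562 extract at 1 mg/mL protein in PBS pH 7.4 with 1 mM MgCl2. Heating for 3 min spanned 48°C-58°C, after which aliquots were pooled, adjusted to 0.5% NP-40 at 4°C and spun at 21,000xg for 90 min. TMTpro 16plex LC-MS/MS of the supernatant, with channel sums equalised, gave values recorded as log-two fold change in thermal stability against solvent controls, from duplicates.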

[1] = compound: C1=CC(=CC=C1C2=NC3=C(N2)C=C(C=C3)C(=O)N)OC4=CC=C(C=C4)Cl
Method in brief: as §1

[2] = compound: C1=CC=C(C=C1)C2=NC(=C(N2)C3=CC=NC=C3)C4=CC(=C(C=C4)Cl)O
Method in brief: as §1

[3] = compound: C1CCN(C1)C(=O)NC2=CC=CC(=C2)NC3=NC=C(C(=N3)NCCC4=CN=CN4)Br
Method in brief: as §1

[4] = compound: C1CN(CCC1(CC2=CC=C(C=C2)Cl)N)C3=NC=NC4=C3C=CN4
Method in brief: as §1

IRAK-1-4 Inhibitor I = compound: C1COCCN1CCN2C3=CC=CC=C3N=C2NC(=O)C4=CC(=CC=C4)[N+](=O)[O-] [IRAK-1-4 Inhibitor I]
Method in brief: as §1

[5] = compound: CC(=O)c1cnc2ccc(-c3cc(Cl)c(O)c(Cl)c3)nc2c1N[C@H]1CC[C@H](CN(C)C)CC1
Method in brief: as §1

ralimetinib = compound: CC(C)(C)Cn1c(N)nc2ccc(-c3[nH]c(C(C)(C)C)nc3-c3ccc(F)cc3)nc21 [ralimetinib]
Method in brief: as §1

[6] = compound: CC(C)(O)CC(=O)NCCn1ccc2ncnc(Nc3ccc(Oc4cccc(C(F)(F)F)c4)c(Cl)c3)c21
Method in brief: as §1

[7] = compound: CC(C)C1=C2N=C(C=C(N2N=C1)NCC3=CC=CC=C3)NCCCCCCN
Method in brief: as §1

[8] = compound: CC1=C(C2=C(C=C1)C(=O)C3=CC=CC=C3N2CCCN)C
Method in brief: as §1

[9] = compound: CC1=C(C=C(C=C1)NC(=O)C2=CC(=CC=C2)C(C)(C)C#N)NC3=CC4=C(C=C3)N=CN(C4=O)C
Method in brief: as §1

[10] = compound: CC1=C(C=C(C=C1)NC(=O)C2=CC(=CC=C2)N(C)C)NC(=O)C3=CC=C(C=C3)O
Method in brief: as §1

[11] = compound: CC1=CC=C(C=C1)SC2=C3C=C(SC3=CN=C2)C(=O)N
Method in brief: as §1

[12] = compound: C/C(=N\NC(=O)C1=CC(=CC=C1)S(=O)(=O)N2CCOCC2)/C3=C(C=CC(=C3)Cl)O
Method in brief: as §1

[13] = compound: C1=CC2=C(C=CC(=C2)/C=C\3/C(=O)NC(=NCC4=CC=CS4)S3)N=C1
Method in brief: as §1

[14] = compound: C1=CC2=NC=CN=C2C=C1/C=C/3\C(=O)NC(=O)S3
Method in brief: as §1

[15] = compound: C1=CC=C2C(=C1)C3=NNC4=CC=CC(=C43)C2=O
Method in brief: as §1

ibrutinib = compound: C=CC(=O)N1CCC[C@@H](n2nc(-c3ccc(Oc4ccccc4)cc3)c3c(N)ncnc32)C1 [ibrutinib]
Method in brief: as §1

[16] = compound: CC1=C(C(CC(=O)N1)C2=CC=C(C=C2)C(F)(F)F)C(=O)NC3=C(C=C4C(=C3)C=NN4)F
Method in brief: as §1

Measured: log2 fold change

AP5S1 (UniProt Q9NUS5)
inactive: erlotinib 0.108 | [1] 0.344 | [2] 0.006 | [3] 0.054 | [4] 0.146 | IRAK-1-4 Inhibitor I -0.044 | [5] -0.219 | ralimetinib -0.208 | [6] -0.068 | [7] -0.455 | [8] -0.099 | [9] 0.097 | [10] -0.073 | [11] 0.113

ARL13B (UniProt Q3SXY8)
inactive: erlotinib 0.043 | [12] 0.06 | [1] -0.195 | [13] -0.039 | [14] 0.118 | [2] -0.033 | [15] 0.094 | IRAK-1-4 Inhibitor I 0.038 | ibrutinib -0.001 | [5] -0.033 | ralimetinib 0.058 | [6] -0.032 | [7] 0.081 | [8] -0.002 | [9] 0.047 | [10] -0.068 | [11] 0.077

ARFGAP3 (UniProt Q9NP61)
inactive: erlotinib -0.002 | [12] -0.021 | [1] 0.04 | [13] 0.017 | [14] -0.049 | [2] -0.005 | [15] 0.015 | [3] -0.02 | [4] 0.009 | IRAK-1-4 Inhibitor I -0.008 | ibrutinib -0.004 | [5] -0.012 | ralimetinib 0.009 | [6] 0.025 | [7] 0.001 | [16] 0.023 | [8] 0 | [9] 0.055 | [10] -0.021 | [11] -0.024

APBA2 (UniProt Q99767)
inactive: erlotinib -0.03 | [12] 0.416 | [1] 0.015 | [13] 0.005 | [14] -0.156 | [2] 0.009 | [15] -0.021 | [3] -0.003 | [4] -0.024 | IRAK-1-4 Inhibitor I -0.024 | ibrutinib -0.038 | [5] -0.012 | ralimetinib 0.032 | [6] -0.022 | [7] 0.024 | [16] 0.013 | [8] -0.025 | [9] -0.027 | [10] 0.007 | [11] 0.016

ARID4A (UniProt P29374)
inactive: erlotinib 0.023 | [12] 0.022 | [1] -0.003 | [13] 0.032 | [2] 0.057 | [15] -0.044 | IRAK-1-4 Inhibitor I 0.169 | ralimetinib 0.244 | [6] 0.087 | [7] 0.025 | [16] -0.056 | [8] 0.025 | [10] -0.089

APPL2 isoform 3 (UniProt Q8NEU8)
inactive: erlotinib 0.034 | [12] 0.08 | [1] -0.055 | [13] -0.076 | [14] -0.018 | [2] 0.105 | [15] -0.018 | [3] 0.002 | [4] -0.049 | IRAK-1-4 Inhibitor I 0.145 | ibrutinib -0.016 | [5] 0.002 | ralimetinib -0.08 | [6] 0.029 | [7] 0.009 | [8] 0.012 | [9] -0.028 | [10] -0.027 | [11] 0.102

APPBP2 (UniProt Q92624)
inactive: erlotinib 0.091 | [1] -0.036 | [14] 0.139 | [2] -0.021 | IRAK-1-4 Inhibitor I -0.023 | ibrutinib 0.154 | ralimetinib -0.045 | [6] -0.052 | [7] 0.049 | [9] 0.054 | [10] -0.175

ARHGAP28 (UniProt Q9P2N2)
inactive: erlotinib -0.001 | [1] 0.135 | [14] 0.021 | ibrutinib -0.008 | [5] -0.062 | [7] -0.031 | [8] -0.066 | [11] -0.066

ARSK (UniProt Q6UWY0)
inactive: erlotinib -0.048 | [12] -0.096 | [1] -0.053 | [13] 0.018 | [2] 0.122 | [15] 0.024 | [3] 0.09 | [4] -0.044 | IRAK-1-4 Inhibitor I 0.02 | [5] -0.093 | ralimetinib 0 | [6] 0.001 | [7] 0.165 | [8] -0.004 | [10] -0.08 | [11] -0.199

APLP2 (UniProt Q06481)
inactive: erlotinib -0.011 | [12] -0.045 | [1] 0.039 | [13] 0.007 | [14] -0.052 | [2] -0.045 | [15] -0.006 | [3] 0 | [4] 0.054 | IRAK-1-4 Inhibitor I 0.038 | ibrutinib 0.029 | [5] 0.043 | ralimetinib -0.015 | [6] -0.074 | [7] -0.018 | [16] 0.043 | [8] 0.045 | [9] 0 | [10] -0.041 | [11] -0.002

APC (UniProt P25054)
inactive: erlotinib 0.018 | [12] -0.166 | [1] -0.034 | [13] 0.111 | [14] -0.052 | [2] 0.012 | [15] 0.06 | [3] -0.026 | [4] -0.051 | IRAK-1-4 Inhibitor I 0.018 | ibrutinib 0 | ralimetinib 0.019 | [6] -0.03 | [7] 0.012 | [8] -0.015 | [9] 0.012 | [10] 0.072

ARRB1 isoform 2 (UniProt P49407)
inactive: erlotinib 0.013 | [12] -0.027 | [1] 0.085 | [13] -0.105 | [14] 0.089 | [2] -0.035 | [15] 0.078 | [3] 0.113 | [4] -0.044 | IRAK-1-4 Inhibitor I 0.021 | ibrutinib 0.07 | [5] -0.036 | ralimetinib 0.075 | [6] -0.032 | [7] 0.051 | [16] -0.146 | [8] 0.043 | [9] 0.04 | [10] -0.007 | [11] 0.039
